Reference: patent US10357487B2, “Combinations of acetylcholinesterase inhibitors and muscarinic agonists and methods of use thereof” (priority 2015, dated 2019)
For at least one compound, name, drawing or mass did not settle the structure.

Test system: patients with history of PVR
Assay: Voiding trial / ability to void under stepwise drug regimens
Format: in vivo, human
Experimental: In an exemplary embodiment, patients with history of PVR of 100 ml to 2500 ml failed bother standard drug treatment and the Trans Urethral Resection of the Prostate (TURP) procedure or combinations of both treatment options.
The patients opted for immediate TURP and pharmacological therapy with alpha blocker, bethanechol, and donepezil if needed.
Bethanechol was then added to maximal recommended doses, according to package insert or Physician Desk Reference (PDR), which was 200 mg per day in divided doses. […] Bethanocol was either added at 75 mg five times per day to their existing regimen or patients were switched to betahnocol alone at 75 mg five time per day.
Subsequently donepezil was added in amounts ranging from 5 or 10 to their respective regimens.
While all patients in this series were males, females can also benefit from the present combination, particularly if no obstruction exists in their urinary tract.

With `CC(C[N+](C)(C)C)OC(N)=O` (centres unmarked) [bethanechol, carbamyl-methylcholine chloride] the voiding trial (75 mg five times per day, added to existing regimen or alone) was “still failed the voiding trial” and the voiding trial (bethanechol added to maximal recommended doses, 200 mg per day in divided doses) was “failed the voiding trial”.
